Experimental data published in US7422848B2, “Hepatitis-B viral variants with reduced susceptibility to nucleoside analogs and uses thereof” (priority 2005, dated 2008).
“Also recorded” adds a separate entry of the source. For at least one compound, name, drawing or mass did not settle the structure.

What was measured:
HBV [1] = experiment: Example 3: second patient, antiviral therapy of HBV infection (HBV DNA, ALT, AST); type: in vivo, human; conditions: IFN 9MIU thrice weekly 12 month, then lamivudine 100 mg/day
Text: A person is a patient with HBsAg (+) and Anti-HBe (+).

HBV [2] = experiment: Case study patient: antiviral therapy of chronic HBV infection (HBV DNA, ALT); type: in vivo, human; conditions: IFN 9 MU/TIW 9 months, then LAM 100 mg/day, listed as LAM
Protocol: HBV DNA levels were measured by using a commercial liquid-hybridization assay (Digene, Maryland, US), with the lower limit of detection of this assay being 5 pg/mL of viral DNA.
Lamuvidine was continued after the development of clinical breakthrough. […] Hepsera™ (Adefovir dipovoxil) 10 mg/day was added to lamivudine monotherapy at 44th month of initial antiviral therapy and 3 months after stopping IFN.
Blood counts and liver-function tests (alanine and aspartate aminotransferases) were done according to routine biochemical procedures (Olympus AU 2700 autoanalyzer, Japan).

wild type HBV = experiment: HBV replication in transiently transfected Huh7 cell lines (Real-time PCR), wild type HBV; conditions: 10 μM antiviral, supernatant at end of 5th day, n.d. = not detectable

Nc1ccn([C@@H]2CS[C@H](CO)O2)c(=O)n1 [3TC, β-L-(−)-2′,3′-dideoxy-3′-thiacytidine]
Response to therapy (in words) (HBV [1]): ALT normalisation was obtained
ALT and virological response to therapy (in words) (HBV [2]): normalization of the ALT level and replication inhibition of HBV; also recorded: normalisation of the level of ALT and replication inhibition of HBV
HBV replication in transiently transfected Huh7 cell lines (Mean log HBV copy number ± standard deviation) (wild type HBV): no detectable HBV DNA
